Source: patent US5506207A (The Salk Institute for Biological Studies, priority 1994, dated 1996)

Experiment: general procedure: Boc solid-phase peptide synthesis; MBHA resin (0.76 mM/g); DCC; DIC
Conditions: whole synthesis, CZE and RP-HPLC with aqueous TEAP buffer plus acetonitrile, scale of the general procedure about 3 grams of MBHA resin

Substance: [Ac-β-D-2NAL^1, (4Cl)D-Phe^2, D-3PAL^3, Aph(Gly)(atz)^5, D-Aph(Gly)(atz)^6, ILys^8, D-Ala^10 ]-GnRH
- final HPLC purity: about 97%-98%
